# Values of other authors, collected in patent US20240127967A1.
# For at least one compound, name, drawing or mass did not settle the structure.
# Tested on: SARS-CoV-2
# Settings: reference [86]; cited from earlier work
row,SMILES,inhibition on SARS-CoV-2 in vitro when used alone
1,CCC(CC)COC(=O)[C@H](C)N[P@](=O)(OC[C@H]1O[C@@](C#N)(c2ccc3c(N)ncnn23)[C@H](O)[C@@H]1O)Oc1ccccc1 [remdesivir],medium inhibition
2,CCOC(=O)c1c(CSc2ccccc2)n(C)c2cc(Br)c(O)c(CN(C)C)c12 [arbidol],medium inhibition
